Consider one molecule from publication PMC9317998.

Protein sequences, listed by entry. Tags and fused reporters are not part of them.
UniProt Q13555: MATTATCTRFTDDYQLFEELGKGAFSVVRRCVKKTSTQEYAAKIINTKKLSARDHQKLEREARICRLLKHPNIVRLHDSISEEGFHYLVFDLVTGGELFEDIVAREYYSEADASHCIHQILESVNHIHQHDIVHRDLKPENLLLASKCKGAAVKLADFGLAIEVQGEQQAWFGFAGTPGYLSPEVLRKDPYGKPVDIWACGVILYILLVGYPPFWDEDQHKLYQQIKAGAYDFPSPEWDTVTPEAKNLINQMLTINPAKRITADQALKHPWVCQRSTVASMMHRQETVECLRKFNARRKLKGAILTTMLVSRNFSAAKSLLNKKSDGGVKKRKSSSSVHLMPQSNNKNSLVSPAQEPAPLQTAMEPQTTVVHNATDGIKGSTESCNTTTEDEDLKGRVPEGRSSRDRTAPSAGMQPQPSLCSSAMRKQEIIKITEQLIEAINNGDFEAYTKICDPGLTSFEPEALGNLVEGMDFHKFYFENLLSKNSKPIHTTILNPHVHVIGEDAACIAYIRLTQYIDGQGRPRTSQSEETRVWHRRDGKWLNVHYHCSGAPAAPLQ

Assay [1] has as its target HA-CaMKIIγ (UniProt Q13555). Kind of assay: proximity ligation; MBMECs transfected with FLAG-MEKK3 and HA-CaMKIIγ plasmids; treated with DMSO or Yoda1 (5 μM) for 1 and 2 h, 48 h after transfection; the PLA signal rose with Yoda1 over time.
Assay [2] deals with HA-CaMKIIγ (UniProt Q13555). As to the kind of experiment: co-IP; HEK293T cells transfected with Flag-MEKK3 and HA-CaMKII isoforms; lysis buffer 50 mM Tris-HCl pH 7.4, 100 mM NaCl, 10% glycerol, 0.5% NP-40, 1 mM DTT, 1 mM PMSF; anti-HA magnetic beads, 4 °C overnight; western blotting.

No constants are given. Whether binding was seen depends on the method and setting. Binding seen in cells or lysates may run through a third protein. Some binding calls cover weakened binding; strength is not graded here. Where a sequence is shown, tags or fusion partners need not be part of it.

B1: Flag-MEKK3 (protein, UniProt Q99759 1-626)
chain: MDEQEALNSIMNDLVALQMNRRHRMPGYETMKNKDTGHSNRQSDVRIKFEHNGERRIIAFSRPVKYEDVEHKVTTVFGQPLDLHYMNNELSILLKNQDDLDKAIDILDRSSSMKSLRILLLSQDRNHNSSSPHSGVSRQVRIKASQSAGDINTIYQPPEPRSRHLSVSSQNPGRSSPPPGYVPERQQHIARQGSYTSINSEGEFIPETSEQCMLDPLSSAENSLSGSCQSLDRSADSPSFRKSRMSRAQSFPDNRQEYSDRETQLYDKGVKGGTYPRRYHVSVHHKDYSDGRRTFPRIRRHQGNLFTLVPSSRSLSTNGENMGLAVQYLDPRGRLRSADSENALSVQERNVPTKSPSAPINWRRGKLLGQGAFGRVYLCYDVDTGRELASKQVQFDPDSPETSKEVSALECEIQLLKNLQHERIVQYYGCLRDRAEKTLTIFMEYMPGGSVKDQLKAYGALTESVTRKYTRQILEGMSYLHSNMIVHRDIKGANILRDSAGNVKLGDFGASKRLQTICMSGTGMRSVTGTPYWMSPEVISGEGYGRKADVWSLGCTVVEMLTEKPPWAEYEAMAAIFKIATQPTNPQLPSHISEHGRDFLRRIFVEARQRPSAEELLTHHFAQLMY
Regarding B1, the binding result in assay [1] and in assay [2] was “binds” each time.
